Results on 1 molecule are retold here after US20240122954A1 (YEP BIO CO. LTD., priority 2021, published 2024).

Molecules are shown by their SMILES.

The test system of the assay is astrocytes. The assay can be described thus: Inhibition of LPS-induced astrocyte activity (cell number, cell area, GFAP intensity; high content imaging). It is filed as cell-based, rats. Conditions: LPS-activated astrocytes, 1-10 nM drug, compared to LPS activity. The procedure: The brains of 1-2 day old rats were excised, separated from the cerebral cortex, and cultured. That is, the […] cortex was divided into single cells in high-glucose DMEM medium containing 10% FBS and penicillin-streptomycin solution (5000 units/ml penicillin, 5 mg/ml streptomycin, Corning, USA), and cultured in a 75-cm2T flask. (0.5 hemispheres/flask) in a cell incubator at 5% CO2 and 37° C.
After 1 week of culture, microglia were removed by shaking at 250 rpm for 4 hours, and the cultured astrocytes were harvested using 0.1% trypsin to obtain an astrocyte population. Astrocytes were cultured in 6-well plates previously coated with Poly-D-Lysine (Sigma).
Astrocytes were used after primary culture was isolated from the brain of pup within 1 to 3 days after birth, and the separated astrocytes were treated with LPS at expressing the lowest concentration of IL-6. The drug treatment was performed simultaneously with LPS, and the activity of astrocytes was evaluated through the number of proliferated cells and changes in morphology (FIG. 2).

`COc1cc2c(cc1OC)C(=O)C(CC1CCN(Cc3ccccc3)CC1)C2` (centres unmarked) [donepezil, reference compound]: the “cell area (FIG. 4)” value is given as “increased” and the “intensity of GFAP (FIG. 4)” value is given as “almost the same or slight increase”.
